Laboratory results published in the supplement of paper PMC10849652.
The other results are listed elsewhere or left out.

Sequences of proteins named here, by UniProt entry; tags and fusion partners are left off. A change or cut given only in a name is not applied to a line headed by its entry.
UniProt O95749: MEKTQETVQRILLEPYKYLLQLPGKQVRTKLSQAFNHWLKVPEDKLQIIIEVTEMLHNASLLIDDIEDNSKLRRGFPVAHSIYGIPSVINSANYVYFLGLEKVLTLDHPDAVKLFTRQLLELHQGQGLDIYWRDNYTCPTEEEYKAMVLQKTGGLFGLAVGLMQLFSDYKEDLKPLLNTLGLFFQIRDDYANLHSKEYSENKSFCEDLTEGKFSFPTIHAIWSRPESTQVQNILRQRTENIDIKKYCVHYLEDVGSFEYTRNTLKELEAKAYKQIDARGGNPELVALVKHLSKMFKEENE
UniProt P04406: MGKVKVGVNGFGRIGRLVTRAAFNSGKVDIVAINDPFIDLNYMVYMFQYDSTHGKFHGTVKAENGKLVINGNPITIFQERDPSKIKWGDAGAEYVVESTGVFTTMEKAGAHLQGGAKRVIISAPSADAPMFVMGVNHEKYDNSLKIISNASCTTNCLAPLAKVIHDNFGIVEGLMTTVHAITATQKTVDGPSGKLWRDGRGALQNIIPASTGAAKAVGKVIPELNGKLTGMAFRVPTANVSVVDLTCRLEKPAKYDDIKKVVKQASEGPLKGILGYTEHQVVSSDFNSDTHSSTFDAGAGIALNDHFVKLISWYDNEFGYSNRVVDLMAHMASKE
UniProt Q9UET6: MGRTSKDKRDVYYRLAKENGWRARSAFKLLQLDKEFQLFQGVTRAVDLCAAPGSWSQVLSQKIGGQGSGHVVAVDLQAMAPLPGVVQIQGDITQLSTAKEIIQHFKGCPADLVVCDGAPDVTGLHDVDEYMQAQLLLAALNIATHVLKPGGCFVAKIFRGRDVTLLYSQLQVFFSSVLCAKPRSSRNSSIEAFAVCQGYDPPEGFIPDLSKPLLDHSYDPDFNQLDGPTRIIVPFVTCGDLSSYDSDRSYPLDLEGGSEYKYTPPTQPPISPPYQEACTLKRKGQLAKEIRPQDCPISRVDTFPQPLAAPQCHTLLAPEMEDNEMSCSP
UniProt Q9BWH2: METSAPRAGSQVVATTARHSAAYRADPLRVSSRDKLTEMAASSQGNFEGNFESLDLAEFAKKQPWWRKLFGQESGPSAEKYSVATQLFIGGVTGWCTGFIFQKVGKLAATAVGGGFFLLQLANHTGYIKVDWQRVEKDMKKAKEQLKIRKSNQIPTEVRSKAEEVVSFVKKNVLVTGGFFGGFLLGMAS
UniProt P02774: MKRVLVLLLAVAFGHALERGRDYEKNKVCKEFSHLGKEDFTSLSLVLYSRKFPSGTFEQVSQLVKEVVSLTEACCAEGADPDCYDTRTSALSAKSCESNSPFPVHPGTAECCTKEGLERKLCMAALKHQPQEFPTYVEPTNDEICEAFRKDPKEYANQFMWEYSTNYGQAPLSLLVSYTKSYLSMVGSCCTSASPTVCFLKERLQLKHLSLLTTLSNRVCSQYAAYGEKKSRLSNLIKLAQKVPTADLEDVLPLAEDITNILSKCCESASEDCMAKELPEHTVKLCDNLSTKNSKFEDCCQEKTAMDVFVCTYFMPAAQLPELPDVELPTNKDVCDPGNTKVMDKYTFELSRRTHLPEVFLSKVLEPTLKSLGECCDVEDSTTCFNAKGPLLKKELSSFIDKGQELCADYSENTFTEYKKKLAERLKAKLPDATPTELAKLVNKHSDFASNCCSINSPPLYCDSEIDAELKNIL
UniProt P04062: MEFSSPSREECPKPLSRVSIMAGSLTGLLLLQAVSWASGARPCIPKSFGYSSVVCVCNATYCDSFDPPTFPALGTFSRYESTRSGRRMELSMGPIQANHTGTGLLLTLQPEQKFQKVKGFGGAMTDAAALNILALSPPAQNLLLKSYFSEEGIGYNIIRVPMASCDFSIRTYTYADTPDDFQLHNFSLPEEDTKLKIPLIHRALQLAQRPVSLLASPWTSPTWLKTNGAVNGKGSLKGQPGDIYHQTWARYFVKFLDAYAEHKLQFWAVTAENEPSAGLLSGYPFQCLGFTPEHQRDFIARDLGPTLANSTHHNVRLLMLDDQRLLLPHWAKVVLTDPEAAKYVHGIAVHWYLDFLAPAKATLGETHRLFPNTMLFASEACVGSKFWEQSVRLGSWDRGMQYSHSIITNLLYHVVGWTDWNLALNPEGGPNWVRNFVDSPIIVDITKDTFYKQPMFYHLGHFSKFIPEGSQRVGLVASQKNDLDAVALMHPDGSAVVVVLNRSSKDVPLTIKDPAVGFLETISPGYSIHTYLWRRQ
UniProt Q92616, whole entry, looked up: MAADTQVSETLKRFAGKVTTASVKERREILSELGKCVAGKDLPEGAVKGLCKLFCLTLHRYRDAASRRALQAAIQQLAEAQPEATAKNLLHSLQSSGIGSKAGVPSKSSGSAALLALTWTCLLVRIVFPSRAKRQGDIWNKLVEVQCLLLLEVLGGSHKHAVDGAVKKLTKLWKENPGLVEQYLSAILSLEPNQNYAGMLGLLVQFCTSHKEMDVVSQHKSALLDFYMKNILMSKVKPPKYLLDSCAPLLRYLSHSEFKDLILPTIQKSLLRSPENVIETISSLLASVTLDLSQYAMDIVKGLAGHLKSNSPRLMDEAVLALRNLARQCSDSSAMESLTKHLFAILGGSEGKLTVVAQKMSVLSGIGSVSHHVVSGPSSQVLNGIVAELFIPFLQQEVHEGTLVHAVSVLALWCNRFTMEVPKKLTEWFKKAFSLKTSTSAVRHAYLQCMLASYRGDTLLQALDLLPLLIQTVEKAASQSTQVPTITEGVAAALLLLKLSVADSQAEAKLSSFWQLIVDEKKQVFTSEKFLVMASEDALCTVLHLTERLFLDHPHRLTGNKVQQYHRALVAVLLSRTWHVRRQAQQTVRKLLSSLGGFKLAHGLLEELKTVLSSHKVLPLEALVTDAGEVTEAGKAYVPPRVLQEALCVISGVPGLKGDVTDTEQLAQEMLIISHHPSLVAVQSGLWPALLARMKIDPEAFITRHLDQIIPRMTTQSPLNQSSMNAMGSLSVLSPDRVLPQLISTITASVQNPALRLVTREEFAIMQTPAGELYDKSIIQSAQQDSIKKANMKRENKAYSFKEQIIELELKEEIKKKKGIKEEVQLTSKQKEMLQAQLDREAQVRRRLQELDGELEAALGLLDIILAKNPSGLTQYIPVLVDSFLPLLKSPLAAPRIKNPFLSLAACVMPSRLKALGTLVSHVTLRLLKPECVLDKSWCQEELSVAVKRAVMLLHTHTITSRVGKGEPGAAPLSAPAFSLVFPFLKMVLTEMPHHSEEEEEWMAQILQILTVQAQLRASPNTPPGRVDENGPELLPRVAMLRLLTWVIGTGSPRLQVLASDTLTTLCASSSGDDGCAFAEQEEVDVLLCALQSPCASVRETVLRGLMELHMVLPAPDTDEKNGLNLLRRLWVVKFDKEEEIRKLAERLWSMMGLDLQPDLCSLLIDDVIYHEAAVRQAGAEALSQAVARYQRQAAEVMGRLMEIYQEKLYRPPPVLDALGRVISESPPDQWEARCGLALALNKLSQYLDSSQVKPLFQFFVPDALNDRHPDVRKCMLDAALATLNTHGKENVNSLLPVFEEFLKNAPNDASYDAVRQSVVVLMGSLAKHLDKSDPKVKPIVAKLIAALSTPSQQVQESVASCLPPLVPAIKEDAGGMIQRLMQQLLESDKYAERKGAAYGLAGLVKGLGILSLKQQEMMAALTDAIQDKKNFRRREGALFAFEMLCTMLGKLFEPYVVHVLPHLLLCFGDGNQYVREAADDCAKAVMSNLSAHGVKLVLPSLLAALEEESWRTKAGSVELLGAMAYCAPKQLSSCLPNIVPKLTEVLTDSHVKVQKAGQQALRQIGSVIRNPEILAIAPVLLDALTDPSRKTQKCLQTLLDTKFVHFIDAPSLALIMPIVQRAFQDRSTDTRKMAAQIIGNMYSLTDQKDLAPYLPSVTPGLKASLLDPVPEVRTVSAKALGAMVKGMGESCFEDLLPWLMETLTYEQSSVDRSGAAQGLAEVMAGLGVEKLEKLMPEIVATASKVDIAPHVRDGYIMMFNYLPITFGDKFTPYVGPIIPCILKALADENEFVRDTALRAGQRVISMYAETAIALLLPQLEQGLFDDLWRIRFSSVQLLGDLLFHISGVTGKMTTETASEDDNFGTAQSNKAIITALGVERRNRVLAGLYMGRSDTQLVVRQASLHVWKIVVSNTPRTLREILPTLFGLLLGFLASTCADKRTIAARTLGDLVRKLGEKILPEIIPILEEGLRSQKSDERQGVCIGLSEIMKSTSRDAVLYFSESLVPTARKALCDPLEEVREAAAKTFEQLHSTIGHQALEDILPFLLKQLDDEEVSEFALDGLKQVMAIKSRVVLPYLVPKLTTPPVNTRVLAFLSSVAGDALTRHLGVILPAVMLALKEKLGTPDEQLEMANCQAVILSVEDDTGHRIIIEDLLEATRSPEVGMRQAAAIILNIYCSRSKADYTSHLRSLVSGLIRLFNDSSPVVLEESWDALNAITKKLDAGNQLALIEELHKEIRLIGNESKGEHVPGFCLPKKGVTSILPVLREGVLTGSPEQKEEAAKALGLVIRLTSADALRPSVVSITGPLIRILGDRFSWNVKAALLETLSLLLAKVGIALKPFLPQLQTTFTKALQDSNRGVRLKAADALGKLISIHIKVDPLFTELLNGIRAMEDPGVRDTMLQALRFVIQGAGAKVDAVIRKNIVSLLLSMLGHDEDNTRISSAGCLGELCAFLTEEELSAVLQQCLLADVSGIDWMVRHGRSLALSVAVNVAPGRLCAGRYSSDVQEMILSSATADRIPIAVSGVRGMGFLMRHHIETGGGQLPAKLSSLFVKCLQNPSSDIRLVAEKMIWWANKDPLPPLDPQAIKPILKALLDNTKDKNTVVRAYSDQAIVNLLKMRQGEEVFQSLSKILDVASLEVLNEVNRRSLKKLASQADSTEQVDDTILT
UniProt P09958, whole entry, looked up: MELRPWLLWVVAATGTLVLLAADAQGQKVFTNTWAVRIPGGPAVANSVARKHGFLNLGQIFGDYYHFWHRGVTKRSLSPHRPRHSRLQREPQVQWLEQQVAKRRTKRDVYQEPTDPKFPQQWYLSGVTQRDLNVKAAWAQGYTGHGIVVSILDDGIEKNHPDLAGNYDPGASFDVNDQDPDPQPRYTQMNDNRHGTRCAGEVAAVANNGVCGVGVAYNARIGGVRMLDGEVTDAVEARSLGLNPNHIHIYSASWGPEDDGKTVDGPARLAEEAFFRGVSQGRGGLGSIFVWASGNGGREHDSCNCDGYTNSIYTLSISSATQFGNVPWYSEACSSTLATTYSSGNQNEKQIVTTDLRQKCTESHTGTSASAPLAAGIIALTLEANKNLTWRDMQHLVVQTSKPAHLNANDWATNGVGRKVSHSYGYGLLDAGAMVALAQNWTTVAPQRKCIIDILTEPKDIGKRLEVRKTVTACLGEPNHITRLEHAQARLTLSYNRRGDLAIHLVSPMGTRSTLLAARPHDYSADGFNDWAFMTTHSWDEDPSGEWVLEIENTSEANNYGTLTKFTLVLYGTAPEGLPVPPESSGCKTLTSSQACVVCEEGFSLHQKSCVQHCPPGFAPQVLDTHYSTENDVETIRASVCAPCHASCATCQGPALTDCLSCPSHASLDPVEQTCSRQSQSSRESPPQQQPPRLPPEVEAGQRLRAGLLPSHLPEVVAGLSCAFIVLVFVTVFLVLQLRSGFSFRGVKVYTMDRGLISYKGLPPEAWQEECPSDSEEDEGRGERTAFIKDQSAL
UniProt Q6ZNA5: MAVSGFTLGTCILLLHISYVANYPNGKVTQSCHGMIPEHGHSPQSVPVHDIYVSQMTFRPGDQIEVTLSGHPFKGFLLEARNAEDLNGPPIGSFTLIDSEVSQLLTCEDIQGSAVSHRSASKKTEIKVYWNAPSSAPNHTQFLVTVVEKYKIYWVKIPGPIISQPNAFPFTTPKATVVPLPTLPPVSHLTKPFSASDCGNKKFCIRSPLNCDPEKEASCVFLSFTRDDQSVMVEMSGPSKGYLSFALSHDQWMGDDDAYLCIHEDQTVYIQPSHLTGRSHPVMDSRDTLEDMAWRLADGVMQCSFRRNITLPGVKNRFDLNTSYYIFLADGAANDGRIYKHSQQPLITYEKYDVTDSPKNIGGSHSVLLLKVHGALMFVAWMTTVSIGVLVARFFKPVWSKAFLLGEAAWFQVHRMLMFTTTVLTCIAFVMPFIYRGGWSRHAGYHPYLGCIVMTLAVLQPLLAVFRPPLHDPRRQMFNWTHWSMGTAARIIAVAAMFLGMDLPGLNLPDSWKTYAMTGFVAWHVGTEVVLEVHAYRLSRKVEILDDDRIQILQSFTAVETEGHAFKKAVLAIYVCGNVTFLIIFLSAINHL
UniProt P07902: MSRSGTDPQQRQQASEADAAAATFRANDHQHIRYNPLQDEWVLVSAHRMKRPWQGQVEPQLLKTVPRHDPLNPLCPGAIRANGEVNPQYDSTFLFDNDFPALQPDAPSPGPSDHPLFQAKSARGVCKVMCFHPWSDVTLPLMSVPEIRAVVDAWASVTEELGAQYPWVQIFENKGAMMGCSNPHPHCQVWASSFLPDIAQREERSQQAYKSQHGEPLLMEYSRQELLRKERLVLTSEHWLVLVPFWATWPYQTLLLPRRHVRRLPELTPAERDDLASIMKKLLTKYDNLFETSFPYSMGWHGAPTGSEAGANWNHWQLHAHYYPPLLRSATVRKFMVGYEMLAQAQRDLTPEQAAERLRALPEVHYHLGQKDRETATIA

Tests used:
Assay in all cases: log2 fold change, soluble protein after heating vs DMSO (PISA); higher = thermal stabilisation; K562 cells, 10 uM, 30 min; active = over 0.2 and 3.5 SD of the protein, either way, in both replicates (recomputed)
[1] = compound: CS(=O)(=O)c1ccc(-c2cnc(N)c(C(=O)Nc3ccccc3)n2)cc1
How it was run: (§1)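 K562 cells at 2×10^6 cells/mL were treated with 10 μM compound for 30 min. Aliquots were heated for 3 min across 48°C-58°C, pooled, and extracted in PBS with 0.5% NP-40 at 4°C; soluble protein was the supernatant after 21,000xg for 90 min. Soluble protein was quantified by TMTpro 16plex LC-MS/MS with channel sums equalised, and reported as log2 fold change in thermal stability against DMSO controls, with values from duplicates.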

crizotinib = compound: C[C@@H](Oc1cc(-c2cnn(C3CCNCC3)c2)cnc1N)c1c(Cl)ccc(F)c1Cl [crizotinib]
How it was run: as §1

[2] = compound: C[C@@H]1COCCN1C2=NC(=NC(=C2)C3(CC3)S(=O)(=O)C)C4=C5C=CNC5=CC=C4
How it was run: as §1

[3] = compound: C[C@H](C1=CC=C(C=C1)C(=O)NC2=C3C=CNC3=NC=C2)N
How it was run: as §1

duvelisib = compound: C[C@H](Nc1ncnc2nc[nH]c12)c1cc2cccc(Cl)c2c(=O)n1-c1ccccc1 [duvelisib]
How it was run: as §1

gandotinib = compound: Cc1cc(Nc2cc(CN3CCOCC3)c3nc(C)c(Cc4ccc(Cl)cc4F)n3n2)n[nH]1 [gandotinib]
How it was run: as §1

tozasertib = compound: Cc1cc(Nc2cc(N3CCN(C)CC3)nc(Sc3ccc(NC(=O)C4CC4)cc3)n2)n[nH]1 [tozasertib]
How it was run: as §1

[4] = compound: Cc1cc(SCc2sc(-c3ccc(C(F)(F)F)cc3)nc2C)ccc1OCC(=O)O
How it was run: as §1

doramapimod = compound: Cc1ccc(-n2nc(C(C)(C)C)cc2NC(=O)Nc2ccc(OCCN3CCOCC3)c3ccccc23)cc1 [doramapimod]
How it was run: as §1

ispinesib = compound: Cc1ccc(C(=O)N(CCCN)[C@@H](c2nc3cc(Cl)ccc3c(=O)n2Cc2ccccc2)C(C)C)cc1 [ispinesib]
How it was run: as §1

bafetinib = compound: Cc1ccc(NC(=O)c2ccc(CN3CC[C@H](N(C)C)C3)c(C(F)(F)F)c2)cc1Nc1nccc(-c2cncnc2)n1 [bafetinib]
How it was run: as §1

[5] = compound: Cc1cccc(CC(=O)N2CCc3c2ccc(-c2cn(C)c4ncnc(N)c24)c3F)n1
How it was run: as §1

nilotinib = compound: Cc1cn(-c2cc(NC(=O)c3ccc(C)c(Nc4nccc(-c5cccnc5)n4)c3)cc(C(F)(F)F)c2)cn1 [nilotinib]
How it was run: as §1

[6] = compound: Cc1nc(Nc2n[nH]c3c2CN(C(=O)N[C@H](CN(C)C)c2ccccc2)C3(C)C)c2sccc2n1
How it was run: as §1

dasatinib = compound: Cc1nc(Nc2ncc(C(=O)Nc3c(C)cccc3Cl)s2)cc(N2CCN(CCO)CC2)n1 [dasatinib]
How it was run: as §1

[7] = compound: Cc1ncc(-c2ccnc(Nc3ccc(S(C)(=O)=O)cc3)n2)n1C(C)C
How it was run: as §1

[8] = compound: Cn1cc(-c2ccc3c(c2)CCN3C(=O)Cc2cccc(C(F)(F)F)c2)c2c(N)ncnc21
How it was run: as §1

[9] = compound: Cn1cc(-c2ccc3nnc(C(F)(F)c4ccc5ncccc5c4)n3n2)cn1
How it was run: as §1

tipifarnib = compound: Cn1cncc1[C@@](N)(c1ccc(Cl)cc1)c1ccc2c(c1)c(-c1cccc(Cl)c1)cc(=O)n2C [tipifarnib]
How it was run: as §1

mubritinib = compound: FC(F)(F)c1ccc(/C=C/c2nc(COc3ccc(CCCCn4ccnn4)cc3)co2)cc1 [mubritinib]
How it was run: as §1

Measured: log2 fold change

GGCX (UniProt P38435)
inactive: [1] -0.061 | crizotinib 0.026 | [2] -0.002 | [3] -0.019 | duvelisib -0.06 | gandotinib 0.046 | tozasertib -0.085 | [4] -0.013 | doramapimod 0.065 | ispinesib -0.087 | bafetinib 0.038 | [5] -0.081 | nilotinib 0.035 | [6] -0.074 | dasatinib -0.104 | [7] 0.012 | [8] 0.077 | [9] -0.043 | tipifarnib -0.098 | mubritinib -0.014

GGPS1 (UniProt O95749)
inactive: [1] -0.005 | crizotinib 0.04 | [2] 0.001 | [3] 0.031 | duvelisib 0.062 | gandotinib -0.083 | tozasertib -0.041 | [4] -0.041 | doramapimod 0.011 | ispinesib 0 | bafetinib -0.015 | [5] -0.151 | nilotinib -0.008 | [6] 0.012 | dasatinib 0.088 | [7] -0.01 | [8] -0.063 | [9] 0.014 | tipifarnib 0.05 | mubritinib 0

FSCN1 (UniProt Q16658)
inactive: [1] -0.006 | crizotinib -0.009 | [2] 0.044 | [3] -0.101 | duvelisib -0.004 | gandotinib -0.06 | tozasertib -0.023 | [4] 0.015 | doramapimod -0.016 | ispinesib 0.068 | bafetinib 0.03 | [5] -0.001 | nilotinib 0.025 | [6] -0.037 | dasatinib -0.029 | [7] 0.002 | [8] 0.003 | [9] 0.01 | tipifarnib -0.051 | mubritinib 0.026

GAB1 isoform 2 (UniProt Q13480)
inactive: [1] -0.048 | crizotinib -0.015 | [2] -0.014 | [3] -0.03 | duvelisib -0.045 | gandotinib 0.015 | tozasertib 0.049 | [4] 0.02 | doramapimod 0.004 | ispinesib -0.163 | bafetinib -0.024 | [5] -0.067 | nilotinib 0.072 | [6] 0.007 | dasatinib 0.061 | [7] -0.121 | [8] 0.02 | [9] 0.002 | tipifarnib 0.013 | mubritinib 0.116

GAPDH (UniProt P04406)
inactive: [1] -0.013 | crizotinib 0.046 | [2] 0.027 | [3] -0.156 | duvelisib -0.003 | gandotinib 0.053 | tozasertib 0.016 | [4] -0.012 | doramapimod -0.084 | ispinesib 0.12 | bafetinib 0.012 | [5] 0.028 | nilotinib 0.069 | [6] -0.01 | dasatinib -0.002 | [7] 0.006 | [8] 0.068 | [9] 0.011 | tipifarnib -0.031 | mubritinib 0.02

GART (UniProt C9JZG2)
inactive: [1] -0.015 | crizotinib -0.08 | [2] -0.032 | [3] 0.152 | duvelisib 0.188 | gandotinib -0.28 | tozasertib -0.186 | [4] -0.065 | doramapimod 0.149 | ispinesib -0.257 | bafetinib 0.13 | [5] -0.019 | nilotinib -0.094 | [6] 0.042 | dasatinib -0.039 | [7] -0.067 | [8] 0.092 | [9] 0.162 | tipifarnib -0.001 | mubritinib 0.08

FTSJ1 isoform 2 (UniProt Q9UET6)
inactive: [1] 0.093

FUNDC2 (UniProt Q9BWH2)
inactive: [1] 0.032 | crizotinib 0.062 | [2] 0.033 | [3] -0.004 | duvelisib 0.045 | gandotinib -0.063 | tozasertib -0.017 | [4] 0.019 | doramapimod -0.015 | ispinesib -0.031 | bafetinib -0.075 | [5] -0.008 | nilotinib -0.031 | [6] 0.03 | dasatinib 0.089 | [7] -0.032 | [8] 0.028 | [9] 0.064 | tipifarnib 0.158 | mubritinib 0.021

Two entries picked at random from those above:
FSCN1 (UniProt Q16658)
inactive: [1] -0.006 | crizotinib -0.009 | [2] 0.044 | [3] -0.101 | duvelisib -0.004 | gandotinib -0.06 | tozasertib -0.023 | [4] 0.015 | doramapimod -0.016 | ispinesib 0.068 | bafetinib 0.03 | [5] -0.001 | nilotinib 0.025 | [6] -0.037 | dasatinib -0.029 | [7] 0.002 | [8] 0.003 | [9] 0.01 | tipifarnib -0.051 | mubritinib 0.026

GGPS1 (UniProt O95749)
inactive: [1] -0.005 | crizotinib 0.04 | [2] 0.001 | [3] 0.031 | duvelisib 0.062 | gandotinib -0.083 | tozasertib -0.041 | [4] -0.041 | doramapimod 0.011 | ispinesib 0 | bafetinib -0.015 | [5] -0.151 | nilotinib -0.008 | [6] 0.012 | dasatinib 0.088 | [7] -0.01 | [8] -0.063 | [9] 0.014 | tipifarnib 0.05 | mubritinib 0

Additional results follow.

GC isoform 3 (UniProt P02774)
inactive: [1] -0.112 | crizotinib -0.245 | [2] -0.186 | [3] -0.112 | duvelisib -0.202 | gandotinib -0.116 | tozasertib 0.094 | [4] -0.013 | doramapimod 0.538 | ispinesib 0.167 | bafetinib 0.014 | [5] -0.107 | nilotinib 0.017 | [6] -0.008 | dasatinib 0.113 | [7] 0.345 | [8] 0.282 | [9] -0.218 | tipifarnib -0.084

GBA (UniProt P04062)
inactive: [1] -0.035 | crizotinib 0.069 | [2] -0.012 | [3] 0.023 | duvelisib 0.005 | gandotinib -0.013 | tozasertib -0.015 | [4] -0.034 | doramapimod 0.03 | ispinesib -0.013 | bafetinib -0.117 | [5] -0.03 | nilotinib 0.042 | [6] -0.028 | dasatinib 0.017 | [7] -0.053 | [8] -0.029 | [9] -0.039 | tipifarnib 0.087 | mubritinib -0.033

GCN1 (UniProt Q92616)
inactive: [1] 0.125 | crizotinib -0.135 | [2] -0.421 | [3] 0.646 | duvelisib -0.241 | gandotinib 0.11 | tozasertib 0.019 | [4] 0.169 | doramapimod 0.39 | ispinesib -0.382 | bafetinib 0.185 | [5] 0.003 | nilotinib -0.031 | [6] -0.06 | dasatinib 0.078 | [7] 0.03 | [8] -0.315 | [9] -0.21 | tipifarnib 0.023 | mubritinib -0.255

GGNBP2 (UniProt Q9H3C7)
inactive: [1] 0.035 | crizotinib -0.179 | [2] -0.28 | [3] 0.171 | duvelisib -0.2 | gandotinib -0.049 | tozasertib -0.127 | [4] -0.231 | doramapimod 0.192 | ispinesib -0.038 | bafetinib 0.178 | [5] -0.042 | nilotinib -0.109 | [6] -0.027 | dasatinib 0.132 | [7] 0 | [8] -0.16 | [9] -0.253 | tipifarnib 0.033 | mubritinib -0.1

FURIN (UniProt P09958)
inactive: [1] 0.043 | crizotinib -0.285 | [2] -0.027 | [3] -0.003 | duvelisib 0.005 | gandotinib -0.009 | tozasertib 0.013 | [4] -0.054 | doramapimod -0.033 | ispinesib -0.125 | bafetinib -0.008 | [5] -0.015 | nilotinib -0.041 | [6] -0.058 | dasatinib 0.043 | [7] 0.023 | [8] -0.001 | [9] 0.032 | tipifarnib 0.101 | mubritinib -0.08

FRRS1 (UniProt Q6ZNA5)
inactive: [1] 0.019 | crizotinib 0.032 | [2] 0.006 | [3] -0.081 | duvelisib 0.067 | gandotinib -0.073 | tozasertib 0.043 | [4] 0.064 | doramapimod -0.018 | ispinesib 0.052 | bafetinib -0.196 | [5] -0.167 | nilotinib 0.059 | [6] -0.097 | dasatinib 0.039 | [7] 0.05 | [8] 0.006 | [9] 0.012 | tipifarnib -0.081 | mubritinib 0.002

GALT (UniProt P07902)
inactive: [1] 0.016 | crizotinib 0.071 | [2] -0.092 | [3] -0.069 | duvelisib -0.034 | gandotinib -0.059 | tozasertib 0.019 | [4] 0.011 | doramapimod -0.043 | ispinesib 0.02 | bafetinib 0.003 | [5] 0.084 | nilotinib -0.057 | [6] -0.109 | dasatinib 0.044 | [7] -0.03 | [8] -0.038 | [9] -0.03 | tipifarnib -0.064 | mubritinib -0.056

GARS1 (UniProt P41250)
inactive: [1] 0.017 | crizotinib 0.045 | [2] 0.032 | [3] -0.044 | duvelisib 0.009 | gandotinib 0.01 | tozasertib -0.033 | [4] -0.041 | doramapimod -0.019 | ispinesib 0.022 | bafetinib -0.039 | [5] -0.033 | nilotinib 0.005 | [6] 0.003 | dasatinib 0.037 | [7] 0.01 | [8] 0.005 | [9] -0.005 | tipifarnib 0.026 | mubritinib 0.028

FTO (UniProt Q9C0B1)
inactive: [1] 0.052 | crizotinib -0.005 | [2] 0.069 | [3] -0.004 | duvelisib 0.024 | gandotinib 0.089 | tozasertib -0.034 | [4] 0.02 | doramapimod 0.017 | ispinesib 0.072 | bafetinib -0.02 | [5] -0.032 | nilotinib 0.051 | [6] 0.034 | dasatinib -0.001 | [7] -0.039 | [8] -0.005 | [9] 0.006 | tipifarnib -0.002 | mubritinib 0.082
